According to patent publication US20080275086A1, “Dpp-Iv Inhibitors” (priority 2005, published 2008):
Some entries share one result that the patent states for a list of compounds.

The chains behind the UniProt entries cited, without tags or fusion partners. Residues count along the entry.
UniProt P27487, 31-766: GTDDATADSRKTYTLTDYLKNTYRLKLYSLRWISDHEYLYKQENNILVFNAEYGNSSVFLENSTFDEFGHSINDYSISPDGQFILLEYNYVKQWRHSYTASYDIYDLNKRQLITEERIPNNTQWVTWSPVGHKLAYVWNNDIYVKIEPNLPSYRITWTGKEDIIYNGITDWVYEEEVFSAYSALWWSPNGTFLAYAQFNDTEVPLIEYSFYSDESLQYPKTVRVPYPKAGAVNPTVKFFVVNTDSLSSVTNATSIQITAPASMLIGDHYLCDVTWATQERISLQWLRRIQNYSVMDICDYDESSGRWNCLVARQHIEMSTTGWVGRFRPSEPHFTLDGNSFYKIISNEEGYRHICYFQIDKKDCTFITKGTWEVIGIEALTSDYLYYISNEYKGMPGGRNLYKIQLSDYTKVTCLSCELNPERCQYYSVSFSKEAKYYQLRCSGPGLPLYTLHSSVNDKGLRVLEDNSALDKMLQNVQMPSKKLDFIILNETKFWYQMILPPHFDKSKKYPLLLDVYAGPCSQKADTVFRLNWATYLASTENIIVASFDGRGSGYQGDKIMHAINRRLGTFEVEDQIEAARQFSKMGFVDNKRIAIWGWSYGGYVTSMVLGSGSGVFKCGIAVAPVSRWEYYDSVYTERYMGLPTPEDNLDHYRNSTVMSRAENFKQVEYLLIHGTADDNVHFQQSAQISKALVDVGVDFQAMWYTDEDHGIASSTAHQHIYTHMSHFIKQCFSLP

Target: T1, DPP-IV (Homo sapiens, UniProt P27487)
T1 construct: Soluble human DPP-IV lacking the transmembrane anchor (Gly31-Pro766); Pre-Pro-alpha-mating factor leader (secretion fusion) (N, cleaved yes); made in house
Test: Continuous fluorimetric assay of inhibition of DPP-IV peptidase activity (Gly-Pro-AMC cleavage)
Assay type: biochemical
Conditions: read-out: IC50 value, summary statement
Description: Inhibition of DPP-IV peptidase activity was monitored with a continuous fluorimetric assay. This assay is based on the cleavage of the substrate Gly-Pro-AMC (Bachem) by DPP-IV, releasing free AMC. The assay is carried out in 96-well microtiterplates. In a total volume of 100 μL, compounds are preincubated with 50 pM DPP-IV employing a buffer containing 10 mM Hepes, 150 mM NaCl, 0.005% Tween 20 (pH 7.4). The reaction is started by the addition of 16 μM substrate and the fluorescence of liberated AMC is detected for 10 minutes at 25° C. with a fluorescence reader (BMG-Fluostar; BMG-Technologies) using an excitation wavelength of 370 nm and an emission wavelength of 450 nm. The final concentration of DMSO is 1%. The inhibitory potential of the compounds were determined.
Soluble human DPP-IV lacking the transmembrane anchor (Gly31-Pro766) was expressed in a recombinant YEAST-strain as Pre-Pro-alpha-mating fusion. The secreted product (rhuDPP-IV-Gly31-Pro766) was purified from fermentation broth (>90% purity) and used for inhouse screening.

N#CC1(c2ccccc2)CCN(C(=O)C[C@H](N)Cc2ccccc2F)CC1 [Example 5]
IC50: ≤ 2000 nM

N[C@@H](CC(=O)N1CCC(N2C(=O)Cc3ccccc32)CC1)Cc1ccccc1F [Example 45]
IC50: ≤ 2000 nM
